# Reference: patent publication US20190352341A1, “MODIFIED PEPTIDES AND THEIR USE FOR TREATING SYSTEMIC LUPUS ERYTHEMATOSUS” (IMMUPHARMA FRANCE SA, priority 2018, published 2019)
# Numbered stars: 1 amine (or outer) side, 2 acyl side, 3 side chain; on linkers, the order of the positions; unused ones are H or OH. Square brackets hold non-standard residues; d marks the D form. Peptide text beside a SMILES is read from it. ξ: configuration not given here. X1 = CSCC[C@H](NC(=N)[C@H](Cc1c[nH]cn1)N[*:1])C(=O)[*:2]; pS = N[C@@H](COP(=O)(O)O)C(=O)O; Ile(3ξ) = CCC(C)[C@H](N)C(=O)O
# Test system: MRL/lpr B cells
# Test: Cellular uptake of fluorescent P140 peptide in MRL/lpr B cells
# Type: cell-based, mouse
structure (smiles),measurement,setting,value
CCC(C)[C@H](NC(=O)[C@H](Cc1ccccc1)NC(=O)[C@H](C)NC(=O)[C@H](Cc1ccc(O)cc1)NC(=O)CNC(=O)[C@H](CCCNC(=N)N)NC(=O)[C@@H]1CCCN1C(=O)[C@H](CCCCN)NC(=O)CNC(=O)[C@H](COP(=O)(O)O)NC(=O)[C@H](CCCNC(=N)N)NC(=O)[C@H](CCCCN)NC(=O)[C@H](CO)NC(=O)[C@H](Cc1ccc(O)cc1)NC(=O)[C@@H](NC(=O)[C@H](CCSC)NC(=N)[C@H](Cc1c[nH]cn1)NC(=O)[C@@H](NC(=O)[C@@H](N)CCCNC(=N)N)C(C)CC)C(C)C)C(=O)N[C@@H](CCC(=O)O)C(=O)N[C@@H](Cc1ccc(O)cc1)C(=O)O (some centres unmarked) [Compound P140] (H-R[Ile(3ξ)][X1]VYSKR[pS]GKPRGYAF[Ile(3ξ)]EY-OH),"Cellular uptake, flow cytometry","MRL/lpr B cells, peptide in 10% trehalose compared with 5.4% mannitol",Much less cellular uptake
same,"Entry into B cells, confocal microscopy",peptide in trehalose compared with mannitol,enters B cells much less
